Amino acid sequences for entries named in this document (tags omitted). A change or cut given only in a name is not applied to a line headed by its entry. Chains listed by the source or under a name are the forms on record and can include a tag or linker.
HA-CIC (Q96RK0, form named): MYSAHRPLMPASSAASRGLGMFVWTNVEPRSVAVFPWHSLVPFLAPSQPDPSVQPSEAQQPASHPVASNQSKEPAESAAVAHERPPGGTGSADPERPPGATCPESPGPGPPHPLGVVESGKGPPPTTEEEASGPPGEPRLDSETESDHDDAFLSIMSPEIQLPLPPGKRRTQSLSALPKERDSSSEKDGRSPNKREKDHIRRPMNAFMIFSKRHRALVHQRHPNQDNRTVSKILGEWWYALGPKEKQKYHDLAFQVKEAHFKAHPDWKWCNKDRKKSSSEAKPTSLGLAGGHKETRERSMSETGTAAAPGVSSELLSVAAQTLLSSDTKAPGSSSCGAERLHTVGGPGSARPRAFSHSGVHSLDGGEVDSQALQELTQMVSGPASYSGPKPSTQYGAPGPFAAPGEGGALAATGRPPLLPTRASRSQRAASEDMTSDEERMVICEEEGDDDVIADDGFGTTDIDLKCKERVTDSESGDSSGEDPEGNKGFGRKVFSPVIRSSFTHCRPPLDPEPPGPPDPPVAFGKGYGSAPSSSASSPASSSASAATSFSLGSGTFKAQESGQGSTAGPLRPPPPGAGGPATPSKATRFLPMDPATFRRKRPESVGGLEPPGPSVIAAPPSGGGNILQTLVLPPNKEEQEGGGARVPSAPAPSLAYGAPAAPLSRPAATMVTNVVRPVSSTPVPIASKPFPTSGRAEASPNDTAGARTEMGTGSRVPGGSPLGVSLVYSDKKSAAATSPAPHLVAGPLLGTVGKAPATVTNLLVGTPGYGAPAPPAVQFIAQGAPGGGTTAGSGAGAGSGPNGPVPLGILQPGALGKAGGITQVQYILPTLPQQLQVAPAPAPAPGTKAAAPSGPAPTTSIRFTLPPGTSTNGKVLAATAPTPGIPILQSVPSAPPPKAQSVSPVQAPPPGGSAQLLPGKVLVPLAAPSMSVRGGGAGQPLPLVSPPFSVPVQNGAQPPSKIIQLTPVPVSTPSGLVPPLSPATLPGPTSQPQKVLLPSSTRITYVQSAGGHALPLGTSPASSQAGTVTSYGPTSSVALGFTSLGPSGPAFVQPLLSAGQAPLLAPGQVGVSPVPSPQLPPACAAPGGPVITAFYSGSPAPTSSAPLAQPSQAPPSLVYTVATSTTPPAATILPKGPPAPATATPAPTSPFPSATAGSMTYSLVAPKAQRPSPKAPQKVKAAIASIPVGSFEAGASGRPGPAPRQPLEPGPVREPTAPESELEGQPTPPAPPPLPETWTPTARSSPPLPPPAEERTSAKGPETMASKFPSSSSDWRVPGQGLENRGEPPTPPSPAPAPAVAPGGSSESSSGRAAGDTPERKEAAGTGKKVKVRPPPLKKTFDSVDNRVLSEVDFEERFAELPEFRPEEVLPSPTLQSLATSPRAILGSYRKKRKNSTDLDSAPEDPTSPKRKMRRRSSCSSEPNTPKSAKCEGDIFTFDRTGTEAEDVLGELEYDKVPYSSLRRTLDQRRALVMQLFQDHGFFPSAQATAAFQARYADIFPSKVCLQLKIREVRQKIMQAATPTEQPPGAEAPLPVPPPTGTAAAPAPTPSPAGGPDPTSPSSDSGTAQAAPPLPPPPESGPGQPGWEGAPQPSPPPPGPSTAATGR

In publication PMC6368580:

Biological target: HA-CIC (capicua, CIC-S isoform, wild type) (UniProt Q96RK0)
Assay: affinity purification with mass spectrometry; mass spectrometry on HA-immunoprecipitated material from MG132-treated HA-CIC transfected U87 cells

B1: PRAJA1 (PJA1), endogenous in U87 cells (enzyme, UniProt Q8NG27 1-643)
chain: MGQESSKPVWPNPTGGYQSNTGRRYGRRHAYVSFRPPTSQRERIASQRKTNSEVPMHRSAPSQTTKRSRSPFSTTRRSWDDSESSGTNLNIDNEDYSRYPPREYRASGSRRGMAYGHIDSYGADDSEEEGAGPVERPPVRGKTGKFKDDKLYDPEKGARSLAGPPPHFSSFSRDVREERDKLDPVPAARCSASRADFLPQSSVASQSSSEGKLATKGDSSERERREQNLPARPSRAPVSICGGGENTSKSAEEPVVRPKIRNLASPNCVKPKIFFDTDDDDDMPHSTSRWRDTANDNEGHSDGLARRGRGESSSGYPEPKYPEDKREARSDQVKPEKVPRRRRTMADPDFWTHSDDYYKYCDEDSDSDKEWIAALRRKYRSREQTLSSSGESWETLPGKEEREPPQAKVSASTGTSPGPGASASAGAGAGASAGSNGSNYLEEVREPSLQEEQASLEEGEIPWLQYHENDSSSEGDNDSGHELMQPGVFMLDGNNNLEDDSSVSEDLEVDWSLFDGFADGLGVAEAISYVDPQFLTYMALEERLAQAMETALAHLESLAVDVEVANPPASKESIDALPEILVTEDHGAVGQEMCCPICCSEYVKGEVATELPCHHYFHKPCVSIWLQKSGTCPVCRCMFPPPL
B1 was tested, and the binding was “binds”.

No constants are given. Whether binding was seen depends on the method and setting. In cells and extracts the contact can be indirect. Here binding means that the protein was enriched with, or labelled near, the bait; the list need not be complete.
